The values that follow come from publication PMC2613030.

No constants are given. Whether binding was seen depends on the method and setting. Binding seen in cells or lysates may run through a third protein. Some entries that bind do so weakly or less than the wild type.

The experiment deals with T1, saglin on mosquito salivary glands (not stated (endogenous in mosquito salivary glands; An. gambiae and An. stephensi colonies kept)) (UniProt F7IW82).
T1 sequence: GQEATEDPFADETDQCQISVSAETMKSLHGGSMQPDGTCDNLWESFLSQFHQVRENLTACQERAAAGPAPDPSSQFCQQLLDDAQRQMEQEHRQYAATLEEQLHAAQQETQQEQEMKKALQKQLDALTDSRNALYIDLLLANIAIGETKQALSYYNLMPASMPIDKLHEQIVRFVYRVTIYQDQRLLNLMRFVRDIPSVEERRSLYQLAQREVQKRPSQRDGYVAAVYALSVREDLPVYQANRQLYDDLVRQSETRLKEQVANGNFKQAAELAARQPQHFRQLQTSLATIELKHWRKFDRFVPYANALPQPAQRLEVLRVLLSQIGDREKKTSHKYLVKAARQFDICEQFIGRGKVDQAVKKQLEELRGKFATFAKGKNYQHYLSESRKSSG
Put plainly: cross-linking; double-derivatized SM1 (10 µg/ml in PBS) incubated with freshly dissected salivary glands 1 h at 4°C in the dark, washed, UV 30 min, glands lysed (0.1% NP40), capture on streptavidin-agarose beads, SDS-PAGE under reducing conditions, bands identified by LC/MS/MS; only the binder purified.

As for PCQRAIFQSICN [double-derivatized SM1 peptide], the binding result was “binds”.
